Data on 2 substances can be found in article PMC10622183.

By UniProt entry, the sequences of proteins in these tests, tags left out. Residues count along the entry.
UniProt Q8TDQ0, residues 22-301: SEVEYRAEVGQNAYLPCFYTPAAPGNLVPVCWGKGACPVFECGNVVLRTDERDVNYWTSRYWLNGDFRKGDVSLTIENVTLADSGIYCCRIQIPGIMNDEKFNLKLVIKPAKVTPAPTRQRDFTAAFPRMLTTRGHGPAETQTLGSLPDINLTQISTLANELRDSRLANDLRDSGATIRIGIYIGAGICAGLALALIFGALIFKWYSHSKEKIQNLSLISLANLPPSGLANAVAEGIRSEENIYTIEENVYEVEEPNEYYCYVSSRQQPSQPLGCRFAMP
UniProt P33241: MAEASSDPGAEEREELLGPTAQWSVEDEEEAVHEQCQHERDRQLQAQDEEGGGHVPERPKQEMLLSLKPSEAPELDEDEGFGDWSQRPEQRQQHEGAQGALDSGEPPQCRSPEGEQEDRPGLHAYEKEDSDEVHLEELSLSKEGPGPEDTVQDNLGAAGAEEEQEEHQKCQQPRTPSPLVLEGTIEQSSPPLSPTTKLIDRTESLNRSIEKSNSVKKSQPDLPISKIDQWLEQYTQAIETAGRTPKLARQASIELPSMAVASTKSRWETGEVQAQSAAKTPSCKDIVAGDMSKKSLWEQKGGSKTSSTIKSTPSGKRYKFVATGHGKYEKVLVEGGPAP
UniProt P46379: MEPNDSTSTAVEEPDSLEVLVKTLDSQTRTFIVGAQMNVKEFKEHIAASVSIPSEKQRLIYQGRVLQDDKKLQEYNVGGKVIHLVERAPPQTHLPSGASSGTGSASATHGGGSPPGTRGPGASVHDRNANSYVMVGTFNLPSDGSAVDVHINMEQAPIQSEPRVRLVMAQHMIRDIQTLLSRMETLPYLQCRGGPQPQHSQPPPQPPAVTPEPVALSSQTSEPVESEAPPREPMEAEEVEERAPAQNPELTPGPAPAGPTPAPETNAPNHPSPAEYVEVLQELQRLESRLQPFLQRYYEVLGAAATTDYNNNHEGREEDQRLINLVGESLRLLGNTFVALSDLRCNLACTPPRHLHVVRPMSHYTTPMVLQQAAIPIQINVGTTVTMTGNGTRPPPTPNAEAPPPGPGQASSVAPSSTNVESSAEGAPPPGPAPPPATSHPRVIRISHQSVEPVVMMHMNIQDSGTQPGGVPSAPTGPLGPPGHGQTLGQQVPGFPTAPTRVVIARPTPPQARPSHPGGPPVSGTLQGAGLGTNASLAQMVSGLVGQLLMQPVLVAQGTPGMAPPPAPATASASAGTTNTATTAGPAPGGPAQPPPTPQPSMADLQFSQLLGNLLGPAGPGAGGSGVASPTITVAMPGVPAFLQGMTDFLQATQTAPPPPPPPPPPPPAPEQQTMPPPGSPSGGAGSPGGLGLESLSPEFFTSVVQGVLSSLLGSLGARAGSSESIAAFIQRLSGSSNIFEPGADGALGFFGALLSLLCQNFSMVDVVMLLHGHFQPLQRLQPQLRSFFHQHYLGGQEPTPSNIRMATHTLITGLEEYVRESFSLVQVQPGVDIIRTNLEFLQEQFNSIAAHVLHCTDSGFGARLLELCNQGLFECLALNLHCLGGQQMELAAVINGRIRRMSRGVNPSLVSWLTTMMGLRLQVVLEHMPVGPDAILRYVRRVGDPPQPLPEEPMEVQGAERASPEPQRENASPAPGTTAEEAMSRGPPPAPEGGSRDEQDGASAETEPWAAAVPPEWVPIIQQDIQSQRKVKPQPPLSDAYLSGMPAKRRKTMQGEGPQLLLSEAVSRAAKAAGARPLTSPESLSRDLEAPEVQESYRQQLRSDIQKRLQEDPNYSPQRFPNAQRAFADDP

These are yes or no findings as the source states them, for the method shown. Binding seen in cells or lysates may run through a third protein. Some entries that bind do so weakly or less than the wild type.

The experiment concerns the target T-cell Immunoglobulin and Mucin Domain 3 (TIM-3) (human (endogenous in monocyte-derived macrophages)) (UniProt Q8TDQ0). Briefly: co-IP; TIM-3 precipitated from whole MDM lysates (Pierce IP lysis buffer, protease inhibitors) with 1 ug monoclonal anti-TIM-3 antibody and Dynabeads Protein G; SDS-PAGE and western blot for BAT-3 or LSP-1; for LSP-1 also cells treated with GAL-9 for 10 min before lysis. (In general: A western blot detects proteins with antibodies after separation by electrophoresis.)

For “lymphocyte-specific protein 1 (LSP-1) (from UniProt P33241 1-339)”, the binding result was “binds”. With “HLA-B-associated transcript 3 (BAT3) (from UniProt P46379 1-1132)”, the binding result was “binds”.
